According to PubChem BioAssay AID1439 (NMMLSC, 2008):
The whole screen tested about 220,000 compounds, of which about 770 (0.35%) were called active. Inconclusive results, whose numbers are uncertain, are shown with a selection of clear calls. Cut-off read from the data, not from the text of the source: active = binding response below about 49% or above about 150%; inconclusive = no clear call, values can overlap the other calls; inactive = in between.

Chains of the proteins cited; added tags and fusions are not shown.
UniProt P09471, whole entry, looked up: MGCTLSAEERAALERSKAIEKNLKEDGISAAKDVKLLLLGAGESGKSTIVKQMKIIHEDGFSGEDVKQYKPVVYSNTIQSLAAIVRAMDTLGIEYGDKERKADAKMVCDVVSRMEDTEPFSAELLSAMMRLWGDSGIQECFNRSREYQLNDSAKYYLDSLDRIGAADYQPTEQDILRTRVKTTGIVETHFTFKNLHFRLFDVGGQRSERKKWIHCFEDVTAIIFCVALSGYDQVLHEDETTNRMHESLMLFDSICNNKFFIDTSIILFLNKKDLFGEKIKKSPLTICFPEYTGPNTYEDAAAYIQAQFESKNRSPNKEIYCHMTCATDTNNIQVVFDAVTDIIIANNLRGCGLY

What follows are compounds tested against Guanine nucleotide-binding protein G(o) subunit alpha (Homo sapiens) (UniProt P09471) (assay: RGS7-Galphao binding modulators, primary screen, biochemical, multiplexed bead flow cytometry (AID 1439;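 note: fluorescent Galphao held in activated GDP-AlF4 state binding bead-coupled RGS7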)). Conditions: at 10 µM, actives lie on both sides.

Question: `Cc1cc(C)nc(-n2nc(C)cc2NC(=O)C(C)C)n1` was tested. Which binding response (% of control) did it give?
Answer: inconclusive: 97.8%

Question: For `O=C(NCCN1C(=O)S/C(=C\c2cccnc2)C1=O)C1=NN(c2ccccc2)C(=O)CC1`, which binding response (% of control) is on record?
Answer: inconclusive: 88%

Question: Which binding response (% of control) does the source give for `CC(=O)c1sc(-c2ccccc2)cc1NS(=O)(=O)c1ccccc1` here?
Answer: inconclusive: 49.8%

Question: `NS(=O)(=O)c1ccc(NC(=O)c2cccc(Cl)c2)cc1` was tested. Which binding response (% of control) did it give?
Answer: inconclusive: 93.8%

Question: With `O=C(CC1SC(=O)NC1=O)Oc1ccc(/C=N/NC(=O)c2ccccc2O)cc1` (centres undefined) as the compound, how does the binding response (% of control) read?
Answer: inconclusive: 105%

Question: How did the binding response (% of control) turn out when `CCN(CC)CCCNCC(=O)Nc1ccc(OC)c(Cl)c1` was run?
Answer: inconclusive: 265%

Question: Which binding response (% of control) does the source give for `CCOC(=O)C1C(=O)C(C(C)=O)C(=O)CC1CC(C)SCC` (centres undefined) here?
Answer: inactive: 101%

Question: `COc1ccccc1-c1ccc(=O)n(CC(=O)NCC2CCCO2)n1` (centres undefined) was tested. Which binding response (% of control) did it give?
Answer: inactive: 98.5%

Question: How did the binding response (% of control) turn out when `Cc1cccc(C)c1NC(=S)N/N=C1\CC2CC=CC12` (centres undefined) was run?
Answer: inconclusive: 99.9%

Question: How did the binding response (% of control) turn out when `O=C(Nc1ccccc1O)c1c(O)c2c([nH]c1=O)CCCC2` was run?
Answer: inactive: 97.9%

Question: With `O=C(COC(=O)C1COc2ccccc2O1)Nc1cccc(S(=O)(=O)N2CCCCC2)c1` (centres undefined) as the compound, how does the binding response (% of control) read?
Answer: inactive: 101%

Question: `NS(=O)(=O)c1ccc(NNC(=O)c2ccc(F)cc2F)cc1` was tested. Which binding response (% of control) did it give?
Answer: inconclusive: 89.7%

Question: With `Nc1ncc(-n2cncn2)c(-c2ccc(Cl)cc2)n1` as the compound, how does the binding response (% of control) read?
Answer: inactive: 96.1%

Question: `O=[N+]([O-])c1ccc(O)c(C(C#Cc2ccccc2)N2CCOCC2)c1` (centres undefined) was tested. Which binding response (% of control) did it give?
Answer: inconclusive: 36.4%

Question: With `COC(=O)C1=C(N)N(c2ccccc2F)C2=C(C(=O)CC(C)(C)C2)C1c1ccc(OC)c(OC)c1` (centres undefined) as the compound, how does the binding response (% of control) read?
Answer: inactive: 100%

Question: `O=C(NCc1cccnc1)c1cn(-c2ccccc2)nc1-c1ccccc1` was tested. Which binding response (% of control) did it give?
Answer: inconclusive: 112%

Question: For `C/C(=N\NC(=O)c1ccc(CN2CCOCC2)cc1)c1ccc(NC(=O)c2ccccc2)cc1`, which binding response (% of control) is on record?
Answer: inactive: 98.5%

Question: How did the binding response (% of control) turn out when `Cc1ccc(NC(=O)c2ccccc2Br)cc1S(=O)(=O)N(C)C` was run?
Answer: inactive: 100%

Question: For `CC(=O)c1ccc(NC(=O)c2ccc(CNc3c(N4CCCC4)c(=O)c3=O)cc2)cc1`, which binding response (% of control) is on record?
Answer: inconclusive: 150%

Question: How did the binding response (% of control) turn out when `Cc1onc(-c2ccccc2)c1C(=O)N/N=C/C=C/c1ccccc1` was run?
Answer: inconclusive: 91%

Question: `CC(C)[C@H](NC(=O)c1ccccc1)C(=O)OCC(=O)c1ccccc1F` was tested. Which binding response (% of control) did it give?
Answer: inconclusive: 98.2%

Question: For `O=C(c1cncs1)N1CCCC(CNS(=O)(=O)c2cccs2)C1` (centres undefined), which binding response (% of control) is on record?
Answer: inactive: 95.2%

Question: Which binding response (% of control) does the source give for `CC(C)(C)c1ccc(C(=O)N2CCCN(c3ccc([N+](=O)[O-])cn3)CC2)cc1` here?
Answer: inconclusive: 167%

Question: How did the binding response (% of control) turn out when `COCCCNC(=O)c1cc(C(=O)c2ccccc2Br)c[nH]1` was run?
Answer: inactive: 98.3%

Question: How did the binding response (% of control) turn out when `COc1cc(C(=O)OCC(=O)NC2CCS(=O)(=O)C2)ccc1OCc1c(C)noc1C` (centres undefined) was run?
Answer: active: 154% [activator]

Question: How did the binding response (% of control) turn out when `Cc1cc(C)c(NC(=O)COC(=O)C2CCC(=O)N2)c(C)c1` (centres undefined) was run?
Answer: inconclusive: 112%

Question: `c1cncc(CSc2ccc(-c3ccc4c(c3)OCO4)nn2)c1` was tested. Which binding response (% of control) did it give?
Answer: inactive: 106%

Question: For `Cn1c(=O)c2c(O)c([N+](=O)[O-])c(=O)n(C)c2n(C)c1=O`, which binding response (% of control) is on record?
Answer: inconclusive: 57.5%

Question: For `O=S(=O)(Nc1cccc(-c2nc3cccnc3s2)c1)c1ccc2c(c1)CCCC2`, which binding response (% of control) is on record?
Answer: inactive: 105%

Question: For `Cc1cccc(N2C(=O)CS/C2=N\NC(=O)c2cccnc2)c1C`, which binding response (% of control) is on record?
Answer: inactive: 92.5%

Question: With `O=C1CC(N2CCc3ccccc32)C(=O)N1c1ccccc1` (centres undefined) as the compound, how does the binding response (% of control) read?
Answer: inconclusive: 49.6%

Question: For `COc1cc(NC(=S)N(C)C)c(OC)cc1Cl`, which binding response (% of control) is on record?
Answer: inconclusive: 77.5%

Question: How did the binding response (% of control) turn out when `O=C(Nc1ccccc1)c1cc([N+](=O)[O-])ccc1Cl` was run?
Answer: inconclusive: 77.4%

Question: With `O=C(Oc1ccccc1C(=O)N1CCOCC1)c1ccc(F)cc1` as the compound, how does the binding response (% of control) read?
Answer: inconclusive: 65.1%

Question: For `CCCCNC(=O)C(=O)NC(C)CCc1ccccc1` (centres undefined), which binding response (% of control) is on record?
Answer: inactive: 99.8%

Question: How did the binding response (% of control) turn out when `COc1c2ccoc2nc2c(OC)c(OCC(OC(C)=O)C(C)(C)O)ccc12` (centres undefined) was run?
Answer: inactive: 99.1%

Question: How did the binding response (% of control) turn out when `Cc1cc(NC(=O)CSc2nnc(-c3ccncc3)n2C)n(-c2ccccc2)n1` was run?
Answer: inconclusive: 100%

Question: How did the binding response (% of control) turn out when `Cc1c(-c2ccccc2)[n+](=O)c(-c2ccc(Br)cc2)c(C)n1[O-]` was run?
Answer: inconclusive: 193%

Question: Which binding response (% of control) does the source give for `O=C(O)CSCC(=O)Nc1ccc(-c2nc3ccccc3s2)cc1` here?
Answer: inconclusive: 109%

Question: Which binding response (% of control) does the source give for `O=C(Cn1cncn1)N/N=C/c1cccc2ccccc12` here?
Answer: inactive: 98.8%

Question: With `C=CCN(C(=O)Nc1ccc(Cl)cc1)C1CC(=O)N(c2ccc(OC)cc2)C1=O` (centres undefined) as the compound, how does the binding response (% of control) read?
Answer: inactive: 100%

Question: With `N/C(Cc1nc2ccccc2s1)=N\O` as the compound, how does the binding response (% of control) read?
Answer: inconclusive: 79.8%

Question: For `CC(=O)Nc1nonc1-c1nc2ccccc2n1CC1CC1`, which binding response (% of control) is on record?
Answer: inactive: 117%

Question: With `O=C(COc1cccc(Br)c1)N/N=C1\CCCc2ccccc21` as the compound, how does the binding response (% of control) read?
Answer: inconclusive: 104%

Question: For `O=C(O)Cc1c(C(=O)O)nnn1-c1ccc(Cl)cc1Cl`, which binding response (% of control) is on record?
Answer: inconclusive: 83.3%

Question: For `C#CCCOC(=O)N1C2=NC(C(=O)OC)=C(C(=O)OC)[C@@H]3N(CC=C)c4ccccc4[C@]23C[C@H]1C(=O)OC`, which binding response (% of control) is on record?
Answer: inconclusive: 147%

Question: For `CCOC(=O)c1ccc[n+](CC(=O)Nc2ccccc2OC(F)F)c1`, which binding response (% of control) is on record?
Answer: inconclusive: 105%

Question: How did the binding response (% of control) turn out when `COc1ccc2nc(N3C(=O)CNC3=S)sc2c1` was run?
Answer: inconclusive: 131%

Question: Which binding response (% of control) does the source give for `O=C(CN1C(=O)C(=O)N(Cc2ccccc2)C1=O)Nc1ccc(F)c(Cl)c1` here?
Answer: inconclusive: 70%

Question: For `COC(=O)c1sc(=S)n(Cc2ccccc2)c1C`, which binding response (% of control) is on record?
Answer: inconclusive: 97.3%

Question: How did the binding response (% of control) turn out when `NS(=O)(=O)c1ccc(NNC(=O)c2ccccc2)cc1` was run?
Answer: inconclusive: 91.8%

Question: For `C=C(C)Cc1c(C)c(C#N)c2nc3ccccc3n2c1NCCCN(C)C`, which binding response (% of control) is on record?
Answer: inconclusive: 91.8%

Question: With `C#CCNC(=O)C1=C[C@@H](C2CC2)C[C@@H](OCCCCO)O1` as the compound, how does the binding response (% of control) read?
Answer: inconclusive: 145%

Question: With `CC#CCNCc1ccccc1` as the compound, how does the binding response (% of control) read?
Answer: inactive: 98.2%

Question: With `COc1ccc(Cl)cc1-c1nc(SCC(N)=O)n[nH]1` as the compound, how does the binding response (% of control) read?
Answer: inconclusive: 35.4%

Question: Which binding response (% of control) does the source give for `O=C(Nc1ccc(F)cc1F)N1CCCN(c2ccc([N+](=O)[O-])cn2)CC1` here?
Answer: inconclusive: 125%

Question: With `C/C(=N\NC(N)=S)c1ccncc1` as the compound, how does the binding response (% of control) read?
Answer: inconclusive: 103%

Question: With `CCOC(=O)CNC(=O)c1sc(NC(=O)/C=C/c2ccccc2)nc1C` as the compound, how does the binding response (% of control) read?
Answer: inconclusive: 110%

Question: For `O=C(NNc1ccc(Cl)cc1)c1cccs1`, which binding response (% of control) is on record?
Answer: inconclusive: 85.2%
